Results are given in words; binding and its absence hold for the method and conditions named. In cells and extracts the contact can be indirect. A result given as binding can be weak or reduced; the word gives no strength. Sequences can lack the tags named with a protein.
Tests used:
[1] = biological target: S-tagged hNSE3/MAGEG1(L267A) (human); assay: co-IP; HEK293T co-transfected with S-tagged hNSE3/MAGEG1 and FLAG-NSE4b; lysates (50 mM Tris-HCl pH 7.7, 0.5% NP40, 150 mM NaCl) precipitated with S-protein agarose, 4 h at 4°C; anti-FLAG blot
[2] = biological target: S-tagged wild-type hNSE3/MAGEG1 (human); assay: as above

| binding [1] | binding [2] | Binder |
| --- | --- | --- |
| binds | binds | FLAG-tagged wild-type NSE4b/EID3 (protein, UniProt Q8N140 1-333) MKMDVSVRAAGCSDDLSSGEADVDPKLLELTADEEKCRSIRRQYRQLMYCVRQNREDIVSSANNSLTEALEEANVLFDGVSRTREAALDARFLVMASDLGKEKAKQLNSDMNFFNQLAFCDFLFLFVGLNWMEGDPDKLSDCDDSIALSFWKAIEKEATSWMVKAETFHFVFGSFKLERSAPKPRLEHQKKVRKMEENGNMPTKLQKLDLSSYPEATEKNVERILGLLQTYFRKYPDTPVSYFEFVIDPNSFSRTVENIFYVSFIVRDGFARIRLDEDRLPILEPMNVNQMGEGNDSSCHGRKQGVISLTLQEWKNIVAAFEISEAMITYSSY |
| no binding | binds | FLAG-tagged NSE4b(F114A/F124A) (protein, UniProt Q8N140 1-333) MKMDVSVRAAGCSDDLSSGEADVDPKLLELTADEEKCRSIRRQYRQLMYCVRQNREDIVSSANNSLTEALEEANVLFDGVSRTREAALDARFLVMASDLGKEKAKQLNSDMNFANQLAFCDFLALFVGLNWMEGDPDKLSDCDDSIALSFWKAIEKEATSWMVKAETFHFVFGSFKLERSAPKPRLEHQKKVRKMEENGNMPTKLQKLDLSSYPEATEKNVERILGLLQTYFRKYPDTPVSYFEFVIDPNSFSRTVENIFYVSFIVRDGFARIRLDEDRLPILEPMNVNQMGEGNDSSCHGRKQGVISLTLQEWKNIVAAFEISEAMITYSSY |

— paper PMC3335016, “Analysis of the Nse3/MAGE-Binding Domain of the Nse4/EID Family Proteins” (PLoS ONE, 2012)
